According to publication PMC8938454:

Experiments:
[1] = target: T1, RUFY3, endogenous in HEK293T (human (endogenous in HEK293T)) (UniProt Q7L099); experiment: co-IP; endogenous IP from HEK293T cell lysates with antibody-conjugated resin (anti-Arl8, anti-RUFY3 or anti-JIP4; mouse IgG resin as control); in Fig. 5l cells treated with control or RUFY3 siRNA
T1 sequence: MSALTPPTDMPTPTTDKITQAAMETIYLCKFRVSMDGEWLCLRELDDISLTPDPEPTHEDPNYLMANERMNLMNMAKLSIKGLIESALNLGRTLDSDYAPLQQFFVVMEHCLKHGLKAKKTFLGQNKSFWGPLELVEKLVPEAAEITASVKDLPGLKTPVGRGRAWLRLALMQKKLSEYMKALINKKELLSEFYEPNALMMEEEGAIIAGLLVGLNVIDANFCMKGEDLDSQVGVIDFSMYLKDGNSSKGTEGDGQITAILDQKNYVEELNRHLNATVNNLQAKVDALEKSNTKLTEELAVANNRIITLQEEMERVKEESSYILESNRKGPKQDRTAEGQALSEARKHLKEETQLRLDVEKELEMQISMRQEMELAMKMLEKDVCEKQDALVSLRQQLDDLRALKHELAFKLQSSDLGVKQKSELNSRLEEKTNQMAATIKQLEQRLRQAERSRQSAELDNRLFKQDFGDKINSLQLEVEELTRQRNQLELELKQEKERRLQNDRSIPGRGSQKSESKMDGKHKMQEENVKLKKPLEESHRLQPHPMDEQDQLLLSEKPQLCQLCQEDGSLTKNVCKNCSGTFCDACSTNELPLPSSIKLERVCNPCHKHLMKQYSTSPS

[2] = target: T2, JIP4/SPAG9 scaffolding protein, endogenous in HEK293T (human (endogenous in HEK293T)) (UniProt O60271); experiment: as above
T2 sequence: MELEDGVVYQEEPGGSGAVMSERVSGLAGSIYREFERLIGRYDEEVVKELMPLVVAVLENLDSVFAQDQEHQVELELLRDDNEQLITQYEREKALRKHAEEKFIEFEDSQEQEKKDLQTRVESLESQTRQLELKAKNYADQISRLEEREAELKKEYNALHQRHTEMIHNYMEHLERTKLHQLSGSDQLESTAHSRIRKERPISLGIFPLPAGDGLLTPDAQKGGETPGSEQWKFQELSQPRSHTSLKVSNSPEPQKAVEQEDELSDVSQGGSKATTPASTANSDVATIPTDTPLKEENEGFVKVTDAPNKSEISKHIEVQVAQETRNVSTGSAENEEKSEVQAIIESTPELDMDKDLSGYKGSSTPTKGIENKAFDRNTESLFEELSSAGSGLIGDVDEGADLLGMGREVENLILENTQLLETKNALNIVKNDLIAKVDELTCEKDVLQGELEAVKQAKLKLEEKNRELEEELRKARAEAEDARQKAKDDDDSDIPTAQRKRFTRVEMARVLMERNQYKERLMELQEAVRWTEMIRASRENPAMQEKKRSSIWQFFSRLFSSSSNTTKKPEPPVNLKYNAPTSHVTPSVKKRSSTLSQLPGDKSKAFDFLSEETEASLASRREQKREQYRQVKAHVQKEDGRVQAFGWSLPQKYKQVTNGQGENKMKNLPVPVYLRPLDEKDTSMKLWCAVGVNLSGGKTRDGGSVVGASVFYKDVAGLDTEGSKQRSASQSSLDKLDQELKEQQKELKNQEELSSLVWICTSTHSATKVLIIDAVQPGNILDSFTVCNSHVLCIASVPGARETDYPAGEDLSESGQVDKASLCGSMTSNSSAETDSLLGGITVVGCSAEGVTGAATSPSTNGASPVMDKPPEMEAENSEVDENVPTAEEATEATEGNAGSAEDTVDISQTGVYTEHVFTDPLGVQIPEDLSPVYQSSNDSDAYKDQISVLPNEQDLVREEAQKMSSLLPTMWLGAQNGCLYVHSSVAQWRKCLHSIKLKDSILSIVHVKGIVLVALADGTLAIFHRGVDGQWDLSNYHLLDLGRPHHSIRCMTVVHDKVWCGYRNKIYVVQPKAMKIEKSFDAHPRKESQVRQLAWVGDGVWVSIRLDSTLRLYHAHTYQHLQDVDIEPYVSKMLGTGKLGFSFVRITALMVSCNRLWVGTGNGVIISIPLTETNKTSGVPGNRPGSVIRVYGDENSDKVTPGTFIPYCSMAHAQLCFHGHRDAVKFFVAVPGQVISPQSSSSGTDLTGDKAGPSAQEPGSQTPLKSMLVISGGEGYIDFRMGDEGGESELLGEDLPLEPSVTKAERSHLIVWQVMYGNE

dynein intermediate chain (DIC), endogenous in HEK293T (human (endogenous in HEK293T))
binding [1]: binds
binding [2]: binds

No constants are given. Whether binding was seen depends on the method and setting. Binding seen in cells or lysates may run through a third protein. Binding calls can cover weak binding; strength is not graded here.
